Library screen at single concentrations

Protein sequences, listed by entry. Tags and fused reporters are not part of them. Residues count along the entry.
UniProt P9WPC5, whole entry: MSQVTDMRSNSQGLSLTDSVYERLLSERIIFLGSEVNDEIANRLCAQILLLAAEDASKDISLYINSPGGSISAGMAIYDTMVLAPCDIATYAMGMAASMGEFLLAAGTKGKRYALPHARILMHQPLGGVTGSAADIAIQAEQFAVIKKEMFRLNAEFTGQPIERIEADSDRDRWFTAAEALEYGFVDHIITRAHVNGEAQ
UniProt P9WPC3, whole entry partner: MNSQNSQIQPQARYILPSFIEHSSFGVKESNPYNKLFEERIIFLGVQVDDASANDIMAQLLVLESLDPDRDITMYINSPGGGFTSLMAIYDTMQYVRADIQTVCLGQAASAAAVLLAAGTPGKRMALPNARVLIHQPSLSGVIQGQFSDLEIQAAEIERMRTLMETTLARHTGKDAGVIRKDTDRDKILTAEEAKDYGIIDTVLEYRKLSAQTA
UniProt Q8IDJ8, 1-583: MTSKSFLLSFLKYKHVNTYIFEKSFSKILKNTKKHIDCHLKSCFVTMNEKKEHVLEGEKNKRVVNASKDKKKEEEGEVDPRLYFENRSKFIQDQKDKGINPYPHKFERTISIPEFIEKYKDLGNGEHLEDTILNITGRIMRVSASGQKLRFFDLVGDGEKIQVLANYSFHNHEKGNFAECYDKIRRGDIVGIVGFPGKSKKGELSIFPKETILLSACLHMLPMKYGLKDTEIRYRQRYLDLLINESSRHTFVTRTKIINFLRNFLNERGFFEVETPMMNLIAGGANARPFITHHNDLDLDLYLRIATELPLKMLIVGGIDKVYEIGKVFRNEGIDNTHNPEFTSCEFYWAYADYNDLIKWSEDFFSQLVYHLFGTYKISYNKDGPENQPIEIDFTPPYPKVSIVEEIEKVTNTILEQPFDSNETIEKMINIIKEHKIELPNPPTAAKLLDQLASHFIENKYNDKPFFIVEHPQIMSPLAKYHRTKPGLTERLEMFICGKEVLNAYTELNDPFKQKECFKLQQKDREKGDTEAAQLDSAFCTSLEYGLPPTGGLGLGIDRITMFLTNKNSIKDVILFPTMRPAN

From ChEMBL document CHEMBL3988442, “University of Dundee, Small-Polar-MMV Screening Library” (2021).

Values are the deposited “Percent Effect”, in %.
The controls that fix the scale are not given in the record; negative values are as filed.
Compounds were drawn at random from those tested, without regard to their results.

Leishmania in macrophages: 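Cell assay of Leishmania donovani living inside macrophages; the read-out is not stated. Compounds at 30 µM. Direction is inferred from retests: higher values go with stronger inhibition. About 69,000 compounds were tested under these conditions; 1.5% (about 1,000) showed 50% or more at least once.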
ClpP1P2: 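ClpP1P2, Mycobacterium tuberculosis (UniProt P9WPC5 and UniProt P9WPC3). Protease assay of ClpP1P2, read by the AMC dye that it sets free. Tested at 50 µM. Direction is inferred from only a few compounds that gave an IC50; most scored high, so higher reads as stronger inhibition. Most other retested compounds had strongly negative values. About 69,000 compounds were tested under these conditions; 0.015% (about 10) showed 50% or more at least once.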
Toxoplasma: 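Assay of Toxoplasma gondii numbers, read through their beta-galactosidase reporter with a colour substrate. Compounds at 10 µM. Higher reads as fewer parasites (inferred from which compounds were picked for retests). About 67,000 compounds were tested under these conditions; 0.38% (about 260) showed 50% or more at least once.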
PfKRS1: 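Enzyme assay of the cytosolic lysyl-tRNA synthetase in 384-well plates, read by luminescence. Target: Lysine-tRNA ligase, Plasmodium falciparum 3D7 (UniProt Q8IDJ8). Tested at 30 µM. Higher reads as stronger inhibition, judged from the few compounds that gave an IC50. Of about 69,000 compounds tested this way, about 49 (0.071%) reached 50% or more in at least one test.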

- CCN(CC(=O)Nc1cc(C(C)(C)C)no1)Cc1ccc(Cl)s1 | Leishmania in macrophages: 13.39%; ClpP1P2: 1.428%; Toxoplasma: 4.4%; PfKRS1: 8.563%
- c1ccc(-c2noc(CN3CCc4cncnc4C3)n2)nc1 | Leishmania in macrophages: -2.275%; ClpP1P2: -6.716%; Toxoplasma: 10.16%; PfKRS1: 8.647%
- COc1ccc(CNC(=O)Cn2ccc3sccc3c2=O)cc1 | Leishmania in macrophages: 30.03%; ClpP1P2: -9.174%; Toxoplasma: 4.987%; PfKRS1: -2.068%
- c1cc(CCNc2ncnc3c2CCN(Cc2ccoc2)CC3)ccn1 | Leishmania in macrophages: 13.34%; ClpP1P2: -8.114%; PfKRS1: 5.708%
- CNC(=O)CN1CCOCC2(CCCN(Cc3ccoc3)C2)C1 (stereo not given) | Leishmania in macrophages: 4.072%; ClpP1P2: 0.9974%; Toxoplasma: 0.3084%; PfKRS1: 0.6929%
- COc1cccc(CN(C)C(C)c2ccon2)c1OCCn1ccnc1 (stereo not given) | Leishmania in macrophages: 41.98%; ClpP1P2: 2.738%; Toxoplasma: -1.81%; PfKRS1: -0.5765%
- Cc1nc(C2CCCC2)sc1C(N)=O | Leishmania in macrophages: -15.57%; ClpP1P2: -7.706%; Toxoplasma: -1.644%; PfKRS1: -4.421%
- Cc1ccoc1C(=O)NC1CCN(Cc2cccc3ccccc23)CC1 | Leishmania in macrophages: 41.67%; ClpP1P2: -16.26%; Toxoplasma: 53.31%; PfKRS1: 0.6391%
- COc1ccc2c3c1CN(S(C)(=O)=O)CC3=CC(C)(C)CO2 | Leishmania in macrophages: -0.4852%; ClpP1P2: -7.65%; Toxoplasma: -22.8%; PfKRS1: 2.008%
- CC(=O)N1CC(=O)N(c2ccccc2)CC12CCN(Cc1ccoc1)C2.O=C(O)C(F)(F)F (stereo not given) | Leishmania in macrophages: 14.76%; Toxoplasma: -24.64%
- CN(C)C(=O)CN1CCN(c2ccnc3c(F)ccc(F)c23)CC1 | Leishmania in macrophages: 24.95%; ClpP1P2: 10.22%; Toxoplasma: 0.295%; PfKRS1: 4.232%
- CCS(=O)(=O)N1CCC2(CN(c3cccc(C)n3)C2)C1.O=C(O)C(F)(F)F | Leishmania in macrophages: -56.09%; Toxoplasma: 3.181%
- CS(=O)(=O)NCc1noc2c1CN(C(=O)c1ccsc1)CC2 | Leishmania in macrophages: 29.78%; ClpP1P2: 3.339%; Toxoplasma: 1.076%; PfKRS1: -2.503%
- CC(CCNC(=O)NCCc1ccc(S(N)(=O)=O)cc1)c1ccccc1 (stereo not given) | Leishmania in macrophages: 10.08%; ClpP1P2: -7.395%; Toxoplasma: 8.724%; PfKRS1: 3.432%
- CN1CCCC1c1nnc2n1CCN(S(=O)(=O)c1ccccc1Cl)CC2 (stereo not given) | Leishmania in macrophages: 19.74%; ClpP1P2: 4.509%; Toxoplasma: 12.06%; PfKRS1: 0.01424%
- COc1ccc2c(c1)CCCN2C(=O)c1cccc(N(C)C)c1 | Leishmania in macrophages: 34.1%; ClpP1P2: 6.954%; Toxoplasma: 2.779%; PfKRS1: 2.944%
- Cc1noc(C)c1CNc1cccc(C(=O)N2CCCC(O)C2)c1 (stereo not given) | Leishmania in macrophages: 6.73%; ClpP1P2: 1.87%; Toxoplasma: 1.754%; PfKRS1: 1.077%

Repeated from the top, 2 entries:

{"compound": "CCN(CC(=O)Nc1cc(C(C)(C)C)no1)Cc1ccc(Cl)s1", "Leishmania in macrophages": 13.39, "ClpP1P2": 1.428, "Toxoplasma": 4.4, "PfKRS1": 8.563}
{"compound": "c1ccc(-c2noc(CN3CCc4cncnc4C3)n2)nc1", "Leishmania in macrophages": -2.275, "ClpP1P2": -6.716, "Toxoplasma": 10.16, "PfKRS1": 8.647}